Assay results reported in patent US20070243589A1.

Experiments:
[1] = target: human IL-22 (human); assay: ELISA: plate coated with 1 µg/ml antigen, IgG at 1 µg/ml, HRP anti-human IgG, A450
[2] = target: rat IL-22 (rat); assay: as above

binding [1]	binding [2]	Binder
binds	binds	355E04 germlined IgG (antibody, V domains shown) VH: QVQLVQSGAEVKKPGASVKVSCKASGYTFTHYYMHWVRQAPGQGLEWVGWINPYTGGAFYAQKFQGRVTMTRDTSISTAYMELSRLRSDDTAVYYCAREPEKFDSPNAEIWGRGTLVTVSS VL: QAVLTQPPSVSGAPGQRVTISCTGSSSNIGAGYGVHWYQQLPGTAPKLLIYGNSNRPSGVPDRFSGSKSGTSASLAITGLQAEDEADYYCQSYDSSLSGYVFGGGTQLTVLG
binds	binds	355B06 germlined IgG (antibody, V domains shown) VH: QVQLVQSGAEVKKPGASVKVSCKASGYTFTDYYMHWVRQAPGQGLEWVGWINPYTGSAFYAQKFRGRVTMTRDTSISTAYMELSRLRSDDTAVYYCAREPEKFGESSGQLWGRGTLVTVSS VL: QAVLTQPPSVSGAPGQRVTISCTGSSSNIGAGYGVHWYQQLPGTAPKLLIYGDSNRPSGVPDRFSGSKSGTSASLAITGLQAEDEADYYCQSYDSGLSGYVFGGGTQLTVLG
binds		354A08 germlined IgG (antibody, V domains shown) VH: QVQLVQSGAEVKKPGASVKVSCKASGYTFTDYYMHWVRQAPGQGLEWVGWINPYTGGAFYAQKFRGRVTMTRDTSISTAYMELSRLRSDDTAVYYCAREPERFGDSTGQVWGRGTLVTVSS VL: QAVLTQPPSVSGAPGQRVTISCTGSSSNIGAGYGVHWYQQLPGTAPKLLIYGNSNRPSGVPDRFSGSKSGTSASLAITGLQAEDEADYYCYHWDKEQSGYVFGGGTQLTVLG
binds		166B06 germlined IgG (antibody, V domains shown) VH: QVQLVQSGAEVKKPGASVKVSCKASGYTFSDYYIHWVRQAPGQGLEWMGWVNPDTGGTRYAQKFQGRVTMTRDMSISTAYMELSRLRSDDTAVYYCARDLTGFDPFDIWGQGTLVTVSS VL: SSVLTQPPSVSVAPGKTARITCGGNNFRNKRVHWYQQKPGQAPVLVIYYDSDRPSGIPERFSGSRSGNTATLTISRVEAGDEADYYCQVWDLFNDNGVFGGGTKLTVLG
binds		166G05 germlined IgG (antibody, V domains shown) VH: QVQLVQSGAEVKKPGASVKVSCKASGYTFSDYYIHWVRQAPGQGLEWMGWVNPDTGGTRYAQKFQGRVTMTRDMSISTAYMELSRLRSDDTAVYYCARDLTGFDPFDIWGQGTLVTVSS VL: SSVLTQPPSVSVAPGKTARITCGGNNFRNKRVHWYQQKPGQAPVLVIYYDSDRPSGIPERFSGSRSGNTATLTISRVEAGDEADYYCQVWDFLTDSGSFGGGTKLTVLG
binds		062G05 IgG (non-germlined) (antibody, V domains shown) VH: QVQLVESGAEVKKPGASVKVSCKASGYTFTSYGISWVRQAPGQGLEWMGWISAYTGNTNYAQKFQGRVTMTTDTSTSTAYMELRSLRSDDTAVYYCARDRGYYDAFDIWGQGTLVTVSS VL: DIQMTQSPSTLSASIGDRVTITCRASEGIYHWLAWYQQKPGKAPKLLIYKASSLASGAPSRFSGSGFGTDFTLTISSLQPDDFATYYCQQMGEWKAAFGGGTKLEIKR
binds		087B03 germlined IgG (antibody, V domains shown) VH: EVQLVESGGGVVRPGGSLRLSCAASGFTFDDYGMNWVRQAPGKGLEWVSGVNWNGGTRDYAASVKGRFTISRDNAKNSLYLQMNSLRAEDTALYHCARGWYSGAAWNMGYWGRGTLVTVSS VL: QAALTQPASVSGSPGQSITISCTGASGDVGAYNFVSWYQQHPGKAPKLIIYDVNKRPSGVSNRFSGSKSGNTASLTISGLQAEDEADYYCSSYTSTFSVVFGGGTKLTVLG
binds	binds	368D04 IgG (non-germlined) (antibody, V domains shown) VH: EVQLVESGGGVVRPGGSLRLSCAASGFTFDDYGMNWVRQAPGKGLEWVSGVNWNGGTRDYAASVKGRFTISRDNAKNSLYLQMNSLRAEDTALYYCARGWYSGAAWNMGYWGRGTLVTVSS VL: QAVLTQPSSVSGSPGQSITISCTGASGDVGAYNFVSWYQQHPGKTPKLIIYDVNKRPSGVSNRFSGSKSGNTASLTISGLQAEDESDYYCASLVSDFSVVFGGGTKVTVLG
binds		367D04 IgG (non-germlined) (antibody, V domains shown) VH: EVQLVESGGGVVRPGGSLRLSCAASGFTFDDYGMNWVRQAPGKGLEWVSGVNWNGGTRDYAASVKGRFTISRDNAKNSLYLQMNSLRAEDTALYYCARGWYSGSPWSLGHWGRGTLVTVSS VL: QAVLTQPSSVSGSPGQSVTISCTGASGDVGAYNFVSWYQQHPGKTPKLIIYDVNKRPSGVSNRFSGSKSGNTASLTISRLQAEDESDYYCSSYTSRYTTEFGGGTKVTVLG
binds		375G06 IgG (non-germlined) (antibody, V domains shown) VH: EVQLVQSGAEVKKPGASVKVSCQASGYTFSDYYIHWVRQTPGQGFEWMGWVNPDTGGTRYAQKFQGWVTMTRDMSNTTAYMELPRLRDDDTAVYYCARDLTGYDYYDRWGQGTLVTVSS VL: QSVLTQPPSMSVAPGKTATITCGGNNFRNKRVHWYQQRPGQAPVLVIYYDSDRPSGIPERFSGSRSGNTATLTISRVEAGDEADFYCQVWDFLADEAMFGGGTKLTVL
binds		376B10 IgG (non-germlined) (antibody, V domains shown) VH: EVQLVQSGAEVKKPGASVKVSCQASGYTFSDYYIHWVRQTPGQGFEWMGWVNPDTGGTRYAQKFQGWVTMTRDMSNTTAYMELPGLRDDDTAVYYCARDLTGYDQYTAWGQGTLVTVSS VL: QSVLTQPPSVSVAPGKTATITCGGNNFRNKRVHWYQQRPGQAPVLVIYYDSDRPSGIPERFSGSRSGNTATLTISRVEAGDEADFYCSTFDPFTDRPLFGGGTKLTVLG

Results are given in words; binding and its absence hold for the method and conditions named. Binding calls can cover weak binding; strength is not graded here.
